Patent publication US20110064746A1 (published 2011)
These are yes or no findings as the source states them, for the method shown. For some assays here: In cells and extracts the contact can be indirect. Some binding calls cover weakened binding; strength is not graded here. For some assays here: Tags and fused reporters may be left off the sequences shown. Each block holds one molecule with its values, some of them ahead of it.

Chains of the proteins cited; added tags and fusions are not shown. Residues count along the entry.
UniProt P63158: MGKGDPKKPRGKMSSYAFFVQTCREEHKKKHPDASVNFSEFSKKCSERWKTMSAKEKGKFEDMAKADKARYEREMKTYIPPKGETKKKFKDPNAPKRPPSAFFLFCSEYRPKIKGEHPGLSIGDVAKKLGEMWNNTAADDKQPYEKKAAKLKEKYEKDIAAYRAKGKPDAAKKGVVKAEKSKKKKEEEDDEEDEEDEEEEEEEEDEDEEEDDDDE
UniProt P24807, residues 27-53: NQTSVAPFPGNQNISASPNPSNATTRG
UniProt P09429: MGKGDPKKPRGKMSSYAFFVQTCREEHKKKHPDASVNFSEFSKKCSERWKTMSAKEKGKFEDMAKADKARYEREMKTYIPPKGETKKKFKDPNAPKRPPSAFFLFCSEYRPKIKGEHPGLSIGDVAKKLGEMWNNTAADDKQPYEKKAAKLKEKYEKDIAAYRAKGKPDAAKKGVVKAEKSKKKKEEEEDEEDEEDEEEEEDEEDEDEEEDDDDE

What was measured:
[1] = molecular target: mouse HMGB1 (mouse) (UniProt P63158); assay: co-immunoprecipitation and reciprocal immunoprecipitation from WT splenocyte lysates
[2] = molecular target: mouse HMGB1 (mouse) (UniProt P63158); assay: co-immunoprecipitation from mouse splenocyte lysates, Western blot; eluted by EDTA
[3] = molecular target: mouse CD24 (mouse) (UniProt P24807); assay: flow cytometry on WT and CD24-/- splenocytes
[4] = molecular target: mouse CD24 (mouse) (UniProt P24807); assay: flow cytometry of Siglec 10Fc on spleen cells of sham-surgery and CLP mice
[5] = molecular target: mouse CD24 (mouse) (UniProt P24807); assay: splenocytes incubated on plates coated with Siglec-Fc, optical density
[6] = molecular target: FLAG-tagged full-length human HMGB1 (F) (human) (UniProt P09429); assay: precipitation of COS7 lysates with CD24Fc, anti-FLAG blot
[7] = molecular target: T1, Siglec-G (mouse) (UniProt Q80ZE3); assay: flow cytometry with biotinylated CD24-Fc on WT and Siglecg-/- splenocytes
T1 sequence (looked up): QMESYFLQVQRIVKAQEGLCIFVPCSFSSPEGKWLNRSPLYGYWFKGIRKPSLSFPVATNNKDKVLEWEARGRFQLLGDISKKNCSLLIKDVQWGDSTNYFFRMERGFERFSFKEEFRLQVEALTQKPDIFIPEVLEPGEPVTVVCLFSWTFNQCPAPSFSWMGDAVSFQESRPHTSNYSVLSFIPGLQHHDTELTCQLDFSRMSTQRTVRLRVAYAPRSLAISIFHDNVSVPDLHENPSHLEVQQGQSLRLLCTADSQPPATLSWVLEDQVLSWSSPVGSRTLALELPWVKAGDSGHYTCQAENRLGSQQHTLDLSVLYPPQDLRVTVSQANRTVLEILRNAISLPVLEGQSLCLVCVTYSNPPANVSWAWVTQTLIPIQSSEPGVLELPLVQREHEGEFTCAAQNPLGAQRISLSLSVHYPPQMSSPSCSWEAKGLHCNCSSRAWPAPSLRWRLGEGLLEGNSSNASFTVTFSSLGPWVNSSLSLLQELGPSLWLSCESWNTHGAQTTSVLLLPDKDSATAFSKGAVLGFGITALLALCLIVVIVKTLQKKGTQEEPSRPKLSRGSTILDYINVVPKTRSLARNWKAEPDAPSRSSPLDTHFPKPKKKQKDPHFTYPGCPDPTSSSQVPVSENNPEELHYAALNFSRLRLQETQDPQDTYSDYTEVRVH

[8] = molecular target: mouse CD24 (mouse) (UniProt P24807); assay: immunoprecipitation of spleen cell lysates with anti-Siglec-G antisera, Western blot

binding [1]: binds | binding [2]: binds
Molecule: mouse CD24 (from UniProt P24807 27-53) (receptor)

binding [3]: binds | binding [4]: binds | binding [5]: binds
B1: Siglec-10-Fc (Fc fusion, human, UniProt Q96LC7 17-550, looked up, not shown: a dimerising Fc or GST)
chain: MDGRFWIRVQESVMVPEGLCISVPCSFSYPRQDWTGSTPAYGYWFKAVTETTKGAPVATNHQSREVEMSTRGRFQLTGDPAKGNCSLVIRDAQMQDESQYFFRVERGSYVRYNFMNDGFFLKVTALTQKPDVYIPETLEPGQPVTVICVFNWAFEECPPPSFSWTGAALSSQGTKPTTSHFSVLSFTPRPQDHNTDLTCHVDFSRKGVSAQRTVRLRVAYAPRDLVISISRDNTPALEPQPQGNVPYLEAQKGQFLRLLCAADSQPPATLSWVLQNRVLSSSHPWGPRPLGLELPGVKAGDSGRYTCRAENRLGSQQRALDLSVQYPPENLRVMVSQANRTVLENLGNGTSLPVLEGQSLCLVCVTHSSPPARLSWTQRGQVLSPSQPSDPGVLELPRVQVEHEGEFTCHARHPLGSQHVSLSLSVHYSPKLLGPSCSWEAEGLHCSCSSQASPAPSLRWWLGEELLEGNSSQDSFEVTPSSAGPWANSSLSLHGGLSSGLRLRCEAWNVHGAQSGSILQLPDKKGLISTAFSN

binding [6]: binds | binding [7]: binds
Molecule: SETTTGTSSNSSQSTSNSGLAPNPTNATTK (Fc fusion, human, UniProt P25063 27-56, looked up, not shown: a dimerising Fc or GST, sialylated glycans; biotinylated in some assays) [CD24-Fc fusion protein]

binding [8]: binds
B2: Siglec-G (receptor, mouse, UniProt Q80ZE3 18-688, looked up)
chain: T1 sequence (looked up)
